No constants are given. Whether binding was seen depends on the method and setting. Binding seen in cells or lysates may run through a third protein. Here binding means that the protein was enriched with, or labelled near, the bait; the list need not be complete. For some assays here: No binding means not detected with the bait.
B1: DNTTIP (protein, UniProt Q9H147 1-329)
chain: MGATGDAEQPRGPSGAERGGLELGDAGAAGQLVLTNPWNIMIKHRQVQRRGRRSQMTTSFTDPAISMDLLRAVLQPSINEEIQTVFNKYMKFFQKAALNVRDNVGEEVDAEQLIQEACRSCLEQAKLLFSDGEKVIPRLTHELPGIKRGRQAEEECAHRGSPLPKKRKGRPPGHILSSDRAAAGMVWKPKSCEPIRREGPKWDPARLNESTTFVLGSRANKALGMGGTRGRIYIKHPHLFKYAADPQDKHWLAEQHHMRATGGKMAYLLIEEDIRDLAASDDYRGCLDLKLEELKSFVLPSWMVEKMRKYMETLRTENEHRAVEAPPQT
B2: ELMSAN1 (protein, UniProt Q6PJG2 1-1045)
chain: MNLQAQPKAQNKRKRCLFGGQEPAPKEQPPPLQPPQQSIRVKEEQYLGHEGPGGAVSTSQPVELPPPSSLALLNSVVYGPERTSAAMLSQQVASVKWPNSVMAPGRGPERGGGGGVSDSSWQQQPGQPPPHSTWNCHSLSLYSATKGSPHPGVGVPTYYNHPEALKREKAGGPQLDRYVRPMMPQKVQLEVGRPQAPLNSFHAAKKPPNQSLPLQPFQLAFGHQVNRQVFRQGPPPPNPVAAFPPQKQQQQQQPQQQQQQQQAALPQMPLFENFYSMPQQPSQQPQDFGLQPAGPLGQSHLAHHSMAPYPFPPNPDMNPELRKALLQDSAPQPALPQVQIPFPRRSRRLSKEGILPPSALDGAGTQPGQEATGNLFLHHWPLQQPPPGSLGQPHPEALGFPLELRESQLLPDGERLAPNGREREAPAMGSEEGMRAVSTGDCGQVLRGGVIQSTRRRRRASQEANLLTLAQKAVELASLQNAKDGSGSEEKRKSVLASTTKCGVEFSEPSLATKRAREDSGMVPLIIPVSVPVRTVDPTEAAQAGGLDEDGKGPEQNPAEHKPSVIVTRRRSTRIPGTDAQAQAEDMNVKLEGEPSVRKPKQRPRPEPLIIPTKAGTFIAPPVYSNITPYQSHLRSPVRLADHPSERSFELPPYTPPPILSPVREGSGLYFNAIISTSTIPAPPPITPKSAHRTLLRTNSAEVTPPVLSVMGEATPVSIEPRINVGSRFQAEIPLMRDRALAAADPHKADLVWQPWEDLESSREKQRQVEDLLTAACSSIFPGAGTNQELALHCLHESRGDILETLNKLLLKKPLRPHNHPLATYHYTGSDQWKMAERKLFNKGIAIYKKDFFLVQKLIQTKTVAQCVEFYYTYKKQVKIGRNGTLTFGDVDTSDEKSAQEEVEVDIKTSQKFPRVPLPRRESPSEERLEPKREVKEPRKEGEEEVPEIQEKEEQEEGRERSRRAAAVKATQTLQANESASDILILRSHESNAPGSAGGQASEKPREGTGKSRRALPFSEKKKKTETFSKTQNQENTFPCKKCGR
B3: MBD6 (protein, UniProt Q96DN6 1-1003)
chain: MNGGNESSGADRAGGPVATSVPIGWQRCVREGAVLYISPSGTELSSLEQTRSYLLSDGTCKCGLECPLNVPKVFNFDPLAPVTPGGAGVGPASEEDMTKLCNHRRKAVAMATLYRSMETTCSHSSPGEGASPQMFHTVSPGPPSARPPCRVPPTTPLNGGPGSLPPEPPSVSQAFPTLAGPGGLFPPRLADPVPSGGSSSPRFLPRGNAPSPAPPPPPAISLNAPSYNWGAALRSSLVPSDLGSPPAPHASSSPPSDPPLFHCSDALTPPPLPPSNNLPAHPGPASQPPVSSATMHLPLVLGPLGGAPTVEGPGAPPFLASSLLSAAAKAQHPPLPPPSTLQGRRPRAQAPSASHSSSLRPSQRRPRRPPTVFRLLEGRGPQTPRRSRPRAPAPVPQPFSLPEPSQPILPSVLSLLGLPTPGPSHSDGSFNLLGSDAHLPPPPTLSSGSPPQPRHPIQPSLPGTTSGSLSSVPGAPAPPAASKAPVVPSPVLQSPSEGLGMGAGPACPLPPLAGGEAFPFPSPEQGLALSGAGFPGMLGALPLPLSLGQPPPSPLLNHSLFGVLTGGGGQPPPEPLLPPPGGPGPPLAPGEPEGPSLLVASLLPPPPSDLLPPPSAPPSNLLASFLPLLALGPTAGDGEGSAEGAGGPSGEPFSGLGDLSPLLFPPLSAPPTLIALNSALLAATLDPPSGTPPQPCVLSAPQPGPPTSSVTTATTDPGASSLGKAPSNSGRPPQLLSPLLGASLLGDLSSLTSSPGALPSLLQPPGPLLSGQLGLQLLPGGGAPPPLSEASSPLACLLQSLQIPPEQPEAPCLPPESPASALEPEPARPPLSALAPPHGSPDPPVPELLTGRGSGKRGRRGGGGLRGINGEARPARGRKPGSRREPGRLALKWGTRGGFNGQMERSPRRTHHWQHNGELAEGGAEPKDPPPPGPHSEDLKVPPGVVRKSRRGRRRKYNPTRNSNSSRQDITLEPSPTARAAVPLPPRARPGRPAKNKRRKLAP
B4: KDM1B (protein, UniProt Q8NB78 1-822)
chain: MATPRGRTKKKASFDHSPDSLPLRSSGRQAKKKATETTDEDEDGGSEKKYRKCEKAGCTATCPVCFASASERCAKNGYTSRWYHLSCGEHFCNECFDHYYRSHKDGYDKYTTWKKIWTSNGKTEPSPKAFMADQQLPYWVQCTKPECRKWRQLTKEIQLTPQIAKTYRCGMKPNTAIKPETSDHCSLPEDLRVLEVSNHWWYSMLILPPLLKDSVAAPLLSAYYPDCVGMSPSCTSTNRAAATGNASPGKLEHSKAALSVHVPGMNRYFQPFYQPNECGKALCVRPDVMELDELYEFPEYSRDPTMYLALRNLILALWYTNCKEALTPQKCIPHIIVRGLVRIRCVQEVERILYFMTRKGLINTGVLSVGADQYLLPKDYHNKSVIIIGAGPAGLAAARQLHNFGIKVTVLEAKDRIGGRVWDDKSFKGVTVGRGAQIVNGCINNPVALMCEQLGISMHKFGERCDLIQEGGRITDPTIDKRMDFHFNALLDVVSEWRKDKTQLQDVPLGEKIEEIYKAFIKESGIQFSELEGQVLQFHLSNLEYACGSNLHQVSARSWDHNEFFAQFAGDHTLLTPGYSVIIEKLAEGLDIQLKSPVQCIDYSGDEVQVTTTDGTGYSAQKVLVTVPLALLQKGAIQFNPPLSEKKMKAINSLGAGIIEKIALQFPYRFWDSKVQGADFFGHVPPSASKRGLFAVFYDMDPQKKHSVLMSVIAGEAVASVRTLDDKQVLQQCMATLRELFKEQEVPDPTKYFVTRWSTDPWIQMAYSFVKTGGSGEAYDIIAEDIQGTVFFAGEATNRHFPQTVTGAYLSGVREASKIAAF

Sequences of proteins named here, by UniProt entry; tags and fusion partners are left off. A change or cut given only in a name is not applied to a line headed by its entry.
UniProt O15550: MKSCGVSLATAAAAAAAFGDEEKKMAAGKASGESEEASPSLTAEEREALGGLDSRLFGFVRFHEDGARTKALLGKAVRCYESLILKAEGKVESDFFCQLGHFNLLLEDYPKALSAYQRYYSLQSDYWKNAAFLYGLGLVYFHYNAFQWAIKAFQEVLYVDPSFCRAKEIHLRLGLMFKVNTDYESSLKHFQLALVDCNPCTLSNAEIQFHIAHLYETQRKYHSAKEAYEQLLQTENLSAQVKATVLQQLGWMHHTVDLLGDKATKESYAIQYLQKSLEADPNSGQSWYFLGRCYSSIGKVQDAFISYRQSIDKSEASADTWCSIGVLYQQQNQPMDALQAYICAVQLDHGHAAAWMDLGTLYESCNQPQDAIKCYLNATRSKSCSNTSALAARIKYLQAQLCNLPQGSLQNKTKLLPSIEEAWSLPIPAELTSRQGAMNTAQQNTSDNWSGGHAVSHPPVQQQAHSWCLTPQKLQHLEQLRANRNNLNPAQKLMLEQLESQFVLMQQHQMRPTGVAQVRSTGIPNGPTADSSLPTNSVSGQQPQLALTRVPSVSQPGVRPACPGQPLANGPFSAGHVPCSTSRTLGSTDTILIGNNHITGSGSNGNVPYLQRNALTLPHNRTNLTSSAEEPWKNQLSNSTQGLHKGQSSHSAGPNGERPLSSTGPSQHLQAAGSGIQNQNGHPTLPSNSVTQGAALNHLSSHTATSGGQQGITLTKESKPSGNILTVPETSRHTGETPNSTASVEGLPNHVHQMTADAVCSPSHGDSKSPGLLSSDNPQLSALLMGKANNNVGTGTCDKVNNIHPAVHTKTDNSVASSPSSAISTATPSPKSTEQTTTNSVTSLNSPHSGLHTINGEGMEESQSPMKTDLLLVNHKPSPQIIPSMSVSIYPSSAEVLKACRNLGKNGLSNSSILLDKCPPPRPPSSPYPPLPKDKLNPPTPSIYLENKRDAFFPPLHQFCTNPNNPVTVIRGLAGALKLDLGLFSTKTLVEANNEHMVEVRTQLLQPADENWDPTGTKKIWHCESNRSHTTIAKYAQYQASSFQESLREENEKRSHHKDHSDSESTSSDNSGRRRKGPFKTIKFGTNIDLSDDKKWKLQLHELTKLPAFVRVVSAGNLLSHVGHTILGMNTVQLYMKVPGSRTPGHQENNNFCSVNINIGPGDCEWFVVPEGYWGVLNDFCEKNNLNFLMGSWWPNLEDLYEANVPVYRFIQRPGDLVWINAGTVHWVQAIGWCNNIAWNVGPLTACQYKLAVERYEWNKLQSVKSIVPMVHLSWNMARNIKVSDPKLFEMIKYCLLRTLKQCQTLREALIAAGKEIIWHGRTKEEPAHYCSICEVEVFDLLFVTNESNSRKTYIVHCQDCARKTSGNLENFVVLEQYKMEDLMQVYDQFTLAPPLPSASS
UniProt Q6ZW49: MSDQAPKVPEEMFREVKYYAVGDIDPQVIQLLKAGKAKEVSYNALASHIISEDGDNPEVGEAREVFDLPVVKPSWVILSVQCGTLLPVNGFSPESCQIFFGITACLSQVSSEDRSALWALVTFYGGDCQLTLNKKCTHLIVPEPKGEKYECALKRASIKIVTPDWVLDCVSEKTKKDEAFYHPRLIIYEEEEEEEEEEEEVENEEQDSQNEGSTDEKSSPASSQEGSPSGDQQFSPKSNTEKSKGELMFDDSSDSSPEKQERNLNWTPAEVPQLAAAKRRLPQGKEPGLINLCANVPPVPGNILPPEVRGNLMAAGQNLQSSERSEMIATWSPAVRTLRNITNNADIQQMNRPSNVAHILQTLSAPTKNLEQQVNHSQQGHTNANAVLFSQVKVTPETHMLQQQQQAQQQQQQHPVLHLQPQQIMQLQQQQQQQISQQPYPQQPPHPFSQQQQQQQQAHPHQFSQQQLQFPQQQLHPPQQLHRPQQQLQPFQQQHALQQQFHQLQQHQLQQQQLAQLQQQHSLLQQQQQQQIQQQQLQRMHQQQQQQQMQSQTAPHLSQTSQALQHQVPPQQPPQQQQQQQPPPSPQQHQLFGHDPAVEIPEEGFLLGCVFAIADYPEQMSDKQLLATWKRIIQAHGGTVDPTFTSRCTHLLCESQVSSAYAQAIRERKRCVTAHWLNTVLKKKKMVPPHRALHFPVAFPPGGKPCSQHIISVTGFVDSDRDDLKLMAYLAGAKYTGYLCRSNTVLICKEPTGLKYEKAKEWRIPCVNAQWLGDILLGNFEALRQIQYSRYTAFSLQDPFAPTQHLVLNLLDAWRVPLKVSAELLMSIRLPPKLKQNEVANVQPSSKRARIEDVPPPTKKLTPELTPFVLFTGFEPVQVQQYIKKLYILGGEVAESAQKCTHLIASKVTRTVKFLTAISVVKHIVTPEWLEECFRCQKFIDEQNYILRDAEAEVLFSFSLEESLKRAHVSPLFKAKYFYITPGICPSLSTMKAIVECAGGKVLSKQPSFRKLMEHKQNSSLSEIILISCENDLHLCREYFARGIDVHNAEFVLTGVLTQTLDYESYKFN
UniProt Q92560: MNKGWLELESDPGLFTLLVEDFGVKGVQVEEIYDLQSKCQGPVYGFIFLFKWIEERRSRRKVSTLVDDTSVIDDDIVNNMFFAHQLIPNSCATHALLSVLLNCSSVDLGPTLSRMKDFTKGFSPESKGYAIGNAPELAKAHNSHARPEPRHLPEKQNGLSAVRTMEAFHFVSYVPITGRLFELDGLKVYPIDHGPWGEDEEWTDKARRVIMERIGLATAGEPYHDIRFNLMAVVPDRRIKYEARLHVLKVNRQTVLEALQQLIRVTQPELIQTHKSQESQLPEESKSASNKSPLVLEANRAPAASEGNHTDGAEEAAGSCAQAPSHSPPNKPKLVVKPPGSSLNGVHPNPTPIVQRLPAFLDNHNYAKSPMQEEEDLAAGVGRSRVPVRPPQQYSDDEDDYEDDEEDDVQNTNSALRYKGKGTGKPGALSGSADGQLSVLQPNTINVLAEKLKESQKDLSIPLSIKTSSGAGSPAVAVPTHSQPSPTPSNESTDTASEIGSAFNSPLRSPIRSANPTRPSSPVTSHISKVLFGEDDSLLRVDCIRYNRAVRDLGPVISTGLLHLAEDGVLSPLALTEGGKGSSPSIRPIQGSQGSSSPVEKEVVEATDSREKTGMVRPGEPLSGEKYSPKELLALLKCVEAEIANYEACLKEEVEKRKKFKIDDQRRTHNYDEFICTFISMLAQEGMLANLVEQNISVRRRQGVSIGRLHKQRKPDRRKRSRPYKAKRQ
UniProt Q9BTK6: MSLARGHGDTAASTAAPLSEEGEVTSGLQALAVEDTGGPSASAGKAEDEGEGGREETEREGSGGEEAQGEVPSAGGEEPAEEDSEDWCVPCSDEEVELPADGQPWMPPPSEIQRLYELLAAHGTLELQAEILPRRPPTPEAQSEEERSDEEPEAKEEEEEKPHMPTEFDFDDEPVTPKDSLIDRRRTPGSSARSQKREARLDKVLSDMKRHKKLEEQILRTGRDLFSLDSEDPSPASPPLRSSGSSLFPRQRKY
UniProt Q13547: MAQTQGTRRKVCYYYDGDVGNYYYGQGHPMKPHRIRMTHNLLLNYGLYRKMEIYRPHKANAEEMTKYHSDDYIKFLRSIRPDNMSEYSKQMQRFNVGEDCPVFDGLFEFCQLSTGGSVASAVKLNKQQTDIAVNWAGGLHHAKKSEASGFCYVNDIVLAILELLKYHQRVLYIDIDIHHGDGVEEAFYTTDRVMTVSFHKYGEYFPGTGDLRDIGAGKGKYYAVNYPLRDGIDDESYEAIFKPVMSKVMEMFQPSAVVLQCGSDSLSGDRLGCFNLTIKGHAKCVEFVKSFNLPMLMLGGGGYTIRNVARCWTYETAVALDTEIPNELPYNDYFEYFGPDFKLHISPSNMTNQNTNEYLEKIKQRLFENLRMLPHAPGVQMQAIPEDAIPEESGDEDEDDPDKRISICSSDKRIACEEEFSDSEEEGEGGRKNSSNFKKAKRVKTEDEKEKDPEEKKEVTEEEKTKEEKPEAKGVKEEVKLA
UniProt Q92769: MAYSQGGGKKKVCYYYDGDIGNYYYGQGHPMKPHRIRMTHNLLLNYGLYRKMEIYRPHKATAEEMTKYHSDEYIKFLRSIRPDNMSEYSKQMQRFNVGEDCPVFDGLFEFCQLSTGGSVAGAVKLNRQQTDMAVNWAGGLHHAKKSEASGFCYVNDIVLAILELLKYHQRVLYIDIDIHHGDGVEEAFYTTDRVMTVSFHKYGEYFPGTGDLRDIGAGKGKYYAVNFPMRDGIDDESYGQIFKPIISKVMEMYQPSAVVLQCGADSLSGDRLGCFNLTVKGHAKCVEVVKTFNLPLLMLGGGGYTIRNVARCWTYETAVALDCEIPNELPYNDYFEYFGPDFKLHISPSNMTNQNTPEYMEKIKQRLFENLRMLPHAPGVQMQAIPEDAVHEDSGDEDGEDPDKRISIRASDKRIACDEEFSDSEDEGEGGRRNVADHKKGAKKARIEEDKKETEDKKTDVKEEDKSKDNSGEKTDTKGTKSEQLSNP
UniProt Q76L83: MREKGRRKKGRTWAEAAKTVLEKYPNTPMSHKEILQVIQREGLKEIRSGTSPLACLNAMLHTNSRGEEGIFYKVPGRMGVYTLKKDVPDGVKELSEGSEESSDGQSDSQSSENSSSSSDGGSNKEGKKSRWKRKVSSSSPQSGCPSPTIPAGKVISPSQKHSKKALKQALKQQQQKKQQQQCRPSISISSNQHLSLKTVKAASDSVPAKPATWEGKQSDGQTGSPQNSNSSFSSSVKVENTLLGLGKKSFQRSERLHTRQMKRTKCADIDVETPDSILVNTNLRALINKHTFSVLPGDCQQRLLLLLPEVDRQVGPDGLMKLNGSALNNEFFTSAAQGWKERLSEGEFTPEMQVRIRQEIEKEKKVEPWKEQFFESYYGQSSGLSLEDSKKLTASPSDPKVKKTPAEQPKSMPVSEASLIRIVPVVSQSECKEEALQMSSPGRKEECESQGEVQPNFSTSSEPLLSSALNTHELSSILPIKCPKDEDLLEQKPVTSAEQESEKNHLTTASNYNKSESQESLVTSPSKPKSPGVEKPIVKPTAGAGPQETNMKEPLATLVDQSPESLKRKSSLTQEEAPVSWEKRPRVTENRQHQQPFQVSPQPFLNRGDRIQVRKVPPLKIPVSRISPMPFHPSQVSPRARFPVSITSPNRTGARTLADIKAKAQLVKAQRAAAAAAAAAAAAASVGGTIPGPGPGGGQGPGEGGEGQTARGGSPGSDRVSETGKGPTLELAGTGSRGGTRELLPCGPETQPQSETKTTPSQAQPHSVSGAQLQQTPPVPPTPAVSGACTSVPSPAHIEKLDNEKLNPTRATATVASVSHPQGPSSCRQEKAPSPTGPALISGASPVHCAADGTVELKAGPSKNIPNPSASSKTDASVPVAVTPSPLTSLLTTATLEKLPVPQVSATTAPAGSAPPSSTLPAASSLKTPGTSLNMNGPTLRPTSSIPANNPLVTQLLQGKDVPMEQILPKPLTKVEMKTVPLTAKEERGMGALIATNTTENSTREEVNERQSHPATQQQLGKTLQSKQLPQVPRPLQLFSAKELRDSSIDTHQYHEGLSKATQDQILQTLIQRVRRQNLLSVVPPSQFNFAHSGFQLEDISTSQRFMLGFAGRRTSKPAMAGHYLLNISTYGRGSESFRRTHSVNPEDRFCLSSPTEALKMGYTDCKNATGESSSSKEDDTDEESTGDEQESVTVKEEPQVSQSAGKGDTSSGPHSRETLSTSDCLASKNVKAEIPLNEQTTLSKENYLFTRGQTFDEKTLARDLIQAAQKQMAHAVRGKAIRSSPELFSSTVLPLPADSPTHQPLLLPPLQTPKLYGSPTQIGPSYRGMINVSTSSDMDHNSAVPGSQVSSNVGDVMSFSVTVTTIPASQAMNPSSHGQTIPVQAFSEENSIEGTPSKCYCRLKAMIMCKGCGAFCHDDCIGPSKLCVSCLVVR

These molecules were tested against UTX isoform Δ13 (GFP-tagged) (human) (assay: affinity purification with mass spectrometry; GFP-coated agarose beads (control: agarose beads) on 1 mg nuclear extract of HeLa cells expressing GFP-tagged UTX (1 µg/mL doxycycline, 48 h); overnight at 4 °C in 20 mM Hepes-KOH pH 7.9, 300 mM NaCl, 20% glycerol, 0.1% NP-40; three replicates each; label-free qMS, 1% FDR).

Molecule | binding
B1 | binds
B2 | binds
B3 | binds
B4 | binds

Each molecule was assayed against UTX isoform Δ14, the canonical isoform (GFP-tagged) (human) (UniProt O15550) in the same assay as above.

Molecule | binding
PAXIP1 (from UniProt Q6ZW49 1-1069) | binds
BAP1 (from UniProt Q92560 1-729) | no binding
PAGR1 (from UniProt Q9BTK6 1-254) | binds
HDAC1 (from UniProt Q13547 1-482) | binds
HDAC2 (from UniProt Q92769 1-488) | binds
ASXL2 (from UniProt Q76L83 1-1435) | binds
B1 | binds
B2 | binds
B3 | binds
B4 | binds

What follows are molecules tested against UTX isoform Δ14Δ16 (GFP-tagged) (human) in the same assay as above.

Molecule | binding
B1 | no binding
B2 | no binding
B3 | no binding
B4 | no binding

The molecules below were run against UTX isoform Δ16 (GFP-tagged) (human) in the same assay as above.

Molecule | binding
B1 | binds
B2 | binds
B3 | binds
B4 | binds

Each molecule was assayed against UTX long isoform (GFP-tagged) (human) in the same assay as above.

Molecule | binding
B1 | binds
B2 | binds
B3 | binds
B4 | binds
